The values below come from the supplement of paper PMC12819154, “High-throughput peptide-centric local stability assay extends protein–ligand identification to membrane proteins, tissues and bacteria” (Nature Structural & Molecular Biology, 2025).

Amino acid sequences for entries named in this document (tags omitted). A change or cut given only in a name is not applied to a line headed by its entry.
UniProt Q8BS40: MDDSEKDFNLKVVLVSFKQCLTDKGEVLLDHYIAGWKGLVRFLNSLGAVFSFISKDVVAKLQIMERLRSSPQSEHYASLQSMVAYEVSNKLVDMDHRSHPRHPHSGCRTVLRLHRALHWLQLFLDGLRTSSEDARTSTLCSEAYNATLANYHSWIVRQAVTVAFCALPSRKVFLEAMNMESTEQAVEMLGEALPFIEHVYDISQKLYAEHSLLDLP
UniProt Q8BU04: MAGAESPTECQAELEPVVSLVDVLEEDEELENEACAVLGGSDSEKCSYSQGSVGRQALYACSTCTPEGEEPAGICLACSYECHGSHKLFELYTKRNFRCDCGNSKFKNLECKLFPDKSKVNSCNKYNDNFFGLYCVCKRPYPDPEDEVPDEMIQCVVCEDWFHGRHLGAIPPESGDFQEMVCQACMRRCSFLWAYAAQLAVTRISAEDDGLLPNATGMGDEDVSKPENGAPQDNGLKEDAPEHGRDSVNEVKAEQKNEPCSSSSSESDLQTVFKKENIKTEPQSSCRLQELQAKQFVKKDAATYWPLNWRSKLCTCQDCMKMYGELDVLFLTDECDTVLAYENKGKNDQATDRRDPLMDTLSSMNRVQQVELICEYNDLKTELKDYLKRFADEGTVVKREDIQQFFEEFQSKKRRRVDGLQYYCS
UniProt Q8BR90: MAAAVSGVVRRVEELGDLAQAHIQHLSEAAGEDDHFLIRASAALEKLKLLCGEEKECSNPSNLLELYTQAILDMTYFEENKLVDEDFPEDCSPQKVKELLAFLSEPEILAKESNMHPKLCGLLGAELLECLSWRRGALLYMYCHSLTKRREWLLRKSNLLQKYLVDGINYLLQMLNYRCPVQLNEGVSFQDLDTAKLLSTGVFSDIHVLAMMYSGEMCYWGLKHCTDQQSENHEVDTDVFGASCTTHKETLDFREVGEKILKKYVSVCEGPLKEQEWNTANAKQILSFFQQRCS
UniProt Q8BMA3: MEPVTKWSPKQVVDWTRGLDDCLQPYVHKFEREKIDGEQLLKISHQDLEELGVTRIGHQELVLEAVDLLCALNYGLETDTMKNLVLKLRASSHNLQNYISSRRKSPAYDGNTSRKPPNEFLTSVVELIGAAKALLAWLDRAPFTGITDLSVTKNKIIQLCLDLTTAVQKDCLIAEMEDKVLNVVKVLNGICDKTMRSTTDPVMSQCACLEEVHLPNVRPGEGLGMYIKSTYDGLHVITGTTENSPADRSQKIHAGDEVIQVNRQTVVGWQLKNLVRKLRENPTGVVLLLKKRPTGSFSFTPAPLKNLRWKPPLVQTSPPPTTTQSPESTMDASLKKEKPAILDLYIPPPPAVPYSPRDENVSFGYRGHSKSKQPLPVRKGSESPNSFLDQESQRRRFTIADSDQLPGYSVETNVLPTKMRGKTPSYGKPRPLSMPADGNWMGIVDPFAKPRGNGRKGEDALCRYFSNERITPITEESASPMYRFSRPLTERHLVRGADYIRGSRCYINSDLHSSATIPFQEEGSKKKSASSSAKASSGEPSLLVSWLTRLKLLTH
UniProt Q8BVA4: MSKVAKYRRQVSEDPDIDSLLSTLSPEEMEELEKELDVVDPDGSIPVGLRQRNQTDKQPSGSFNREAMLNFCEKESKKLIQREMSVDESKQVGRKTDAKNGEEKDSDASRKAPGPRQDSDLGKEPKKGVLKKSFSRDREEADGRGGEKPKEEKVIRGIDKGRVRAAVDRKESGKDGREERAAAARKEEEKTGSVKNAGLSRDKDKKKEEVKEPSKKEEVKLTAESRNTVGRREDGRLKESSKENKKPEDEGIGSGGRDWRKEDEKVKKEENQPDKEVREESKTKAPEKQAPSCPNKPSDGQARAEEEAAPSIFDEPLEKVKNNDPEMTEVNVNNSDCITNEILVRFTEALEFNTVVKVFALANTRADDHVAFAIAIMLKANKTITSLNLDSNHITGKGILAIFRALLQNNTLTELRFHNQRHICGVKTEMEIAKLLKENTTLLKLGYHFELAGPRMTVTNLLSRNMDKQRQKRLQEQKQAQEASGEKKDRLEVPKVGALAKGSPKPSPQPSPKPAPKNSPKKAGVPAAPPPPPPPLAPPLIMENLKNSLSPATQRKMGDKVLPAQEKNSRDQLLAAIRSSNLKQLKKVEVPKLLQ
UniProt Q8BS95: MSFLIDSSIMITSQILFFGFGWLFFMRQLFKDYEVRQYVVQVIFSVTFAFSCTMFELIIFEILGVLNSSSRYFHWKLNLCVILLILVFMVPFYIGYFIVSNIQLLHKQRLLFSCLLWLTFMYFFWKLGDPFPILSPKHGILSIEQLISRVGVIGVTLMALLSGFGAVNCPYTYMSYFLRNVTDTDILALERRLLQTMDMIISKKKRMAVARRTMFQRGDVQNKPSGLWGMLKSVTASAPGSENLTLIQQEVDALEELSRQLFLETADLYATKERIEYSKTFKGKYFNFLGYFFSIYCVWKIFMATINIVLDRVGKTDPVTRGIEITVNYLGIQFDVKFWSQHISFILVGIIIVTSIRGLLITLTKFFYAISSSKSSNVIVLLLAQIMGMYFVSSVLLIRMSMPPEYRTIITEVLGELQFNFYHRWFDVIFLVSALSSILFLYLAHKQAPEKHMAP
UniProt Q8BTS4: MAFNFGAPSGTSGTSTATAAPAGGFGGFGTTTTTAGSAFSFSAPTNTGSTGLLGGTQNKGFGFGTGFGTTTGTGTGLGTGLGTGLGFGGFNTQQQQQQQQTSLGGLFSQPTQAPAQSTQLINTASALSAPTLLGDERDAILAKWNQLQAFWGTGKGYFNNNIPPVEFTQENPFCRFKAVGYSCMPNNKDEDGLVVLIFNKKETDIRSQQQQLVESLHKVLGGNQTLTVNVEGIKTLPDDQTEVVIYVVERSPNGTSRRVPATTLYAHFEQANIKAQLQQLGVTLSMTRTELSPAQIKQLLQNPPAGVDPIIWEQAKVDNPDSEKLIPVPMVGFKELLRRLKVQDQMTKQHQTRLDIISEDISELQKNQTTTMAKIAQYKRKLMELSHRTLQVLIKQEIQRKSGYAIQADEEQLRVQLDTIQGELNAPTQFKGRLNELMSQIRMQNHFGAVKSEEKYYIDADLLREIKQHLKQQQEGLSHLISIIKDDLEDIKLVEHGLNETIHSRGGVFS
UniProt Q8BTY8: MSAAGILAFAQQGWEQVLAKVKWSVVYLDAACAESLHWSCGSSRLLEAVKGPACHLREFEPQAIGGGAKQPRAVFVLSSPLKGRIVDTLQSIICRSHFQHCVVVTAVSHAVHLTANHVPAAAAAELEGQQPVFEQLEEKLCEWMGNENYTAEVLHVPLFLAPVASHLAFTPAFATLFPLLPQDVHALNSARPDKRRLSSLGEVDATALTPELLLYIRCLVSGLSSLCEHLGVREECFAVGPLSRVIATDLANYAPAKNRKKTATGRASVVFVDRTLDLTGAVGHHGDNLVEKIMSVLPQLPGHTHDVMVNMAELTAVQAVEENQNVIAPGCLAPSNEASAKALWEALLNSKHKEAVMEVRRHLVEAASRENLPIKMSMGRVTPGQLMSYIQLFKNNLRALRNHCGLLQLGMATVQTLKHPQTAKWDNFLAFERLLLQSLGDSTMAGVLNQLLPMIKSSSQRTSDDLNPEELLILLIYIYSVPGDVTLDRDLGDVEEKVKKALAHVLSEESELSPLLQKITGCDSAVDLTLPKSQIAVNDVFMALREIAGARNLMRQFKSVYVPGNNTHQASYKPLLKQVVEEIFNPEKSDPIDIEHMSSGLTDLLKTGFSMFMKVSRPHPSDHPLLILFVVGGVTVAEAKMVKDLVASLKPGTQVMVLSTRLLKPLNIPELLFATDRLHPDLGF
UniProt Q8BTQ0: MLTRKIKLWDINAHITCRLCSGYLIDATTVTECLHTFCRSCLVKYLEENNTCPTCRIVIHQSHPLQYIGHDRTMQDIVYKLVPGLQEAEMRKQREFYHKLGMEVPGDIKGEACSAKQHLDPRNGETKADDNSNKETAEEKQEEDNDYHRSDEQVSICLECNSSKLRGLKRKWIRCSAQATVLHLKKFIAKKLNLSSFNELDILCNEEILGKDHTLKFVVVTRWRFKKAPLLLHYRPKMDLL
UniProt Q8BMD5: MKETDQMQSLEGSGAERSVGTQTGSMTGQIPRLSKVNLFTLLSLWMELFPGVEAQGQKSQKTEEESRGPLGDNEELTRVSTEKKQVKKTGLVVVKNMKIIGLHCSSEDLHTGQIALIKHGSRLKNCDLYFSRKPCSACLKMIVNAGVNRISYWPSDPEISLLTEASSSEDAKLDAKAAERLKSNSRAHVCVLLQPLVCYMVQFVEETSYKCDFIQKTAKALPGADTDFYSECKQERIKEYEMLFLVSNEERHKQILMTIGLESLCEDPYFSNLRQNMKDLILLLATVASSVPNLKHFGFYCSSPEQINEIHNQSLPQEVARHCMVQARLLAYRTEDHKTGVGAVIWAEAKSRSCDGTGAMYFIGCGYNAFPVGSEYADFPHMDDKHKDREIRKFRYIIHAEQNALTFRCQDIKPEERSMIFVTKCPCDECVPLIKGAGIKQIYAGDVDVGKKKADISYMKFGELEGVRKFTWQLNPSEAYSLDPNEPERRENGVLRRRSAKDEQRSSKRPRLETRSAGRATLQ
UniProt Q8BQS5: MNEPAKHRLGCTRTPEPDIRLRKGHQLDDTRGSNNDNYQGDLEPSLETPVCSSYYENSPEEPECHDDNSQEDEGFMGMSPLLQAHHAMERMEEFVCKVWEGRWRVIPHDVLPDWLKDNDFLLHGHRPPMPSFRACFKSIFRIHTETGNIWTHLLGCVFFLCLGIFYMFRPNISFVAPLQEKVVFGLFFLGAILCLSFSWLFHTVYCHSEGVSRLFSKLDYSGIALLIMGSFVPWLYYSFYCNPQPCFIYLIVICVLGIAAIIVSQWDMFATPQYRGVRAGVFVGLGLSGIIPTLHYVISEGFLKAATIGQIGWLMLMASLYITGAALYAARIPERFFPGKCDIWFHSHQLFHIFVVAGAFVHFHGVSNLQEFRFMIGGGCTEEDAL
UniProt Q8BUI3: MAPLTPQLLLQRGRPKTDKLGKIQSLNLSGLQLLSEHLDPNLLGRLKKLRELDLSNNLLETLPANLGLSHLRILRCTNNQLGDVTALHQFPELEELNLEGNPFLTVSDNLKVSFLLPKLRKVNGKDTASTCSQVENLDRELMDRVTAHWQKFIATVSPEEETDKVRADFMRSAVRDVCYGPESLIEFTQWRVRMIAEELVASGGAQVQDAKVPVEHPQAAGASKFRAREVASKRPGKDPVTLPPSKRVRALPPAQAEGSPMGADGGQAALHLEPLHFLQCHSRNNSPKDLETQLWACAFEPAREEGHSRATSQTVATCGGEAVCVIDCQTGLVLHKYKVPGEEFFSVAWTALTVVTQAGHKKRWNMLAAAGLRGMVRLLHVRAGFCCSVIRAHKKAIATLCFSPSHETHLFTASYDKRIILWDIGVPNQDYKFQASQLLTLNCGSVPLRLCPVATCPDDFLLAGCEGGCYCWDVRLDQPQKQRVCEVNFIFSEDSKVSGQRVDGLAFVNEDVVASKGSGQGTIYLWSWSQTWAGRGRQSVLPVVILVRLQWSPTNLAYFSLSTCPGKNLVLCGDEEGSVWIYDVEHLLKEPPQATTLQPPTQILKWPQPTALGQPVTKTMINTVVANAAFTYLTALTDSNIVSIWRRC
UniProt Q8BHY3: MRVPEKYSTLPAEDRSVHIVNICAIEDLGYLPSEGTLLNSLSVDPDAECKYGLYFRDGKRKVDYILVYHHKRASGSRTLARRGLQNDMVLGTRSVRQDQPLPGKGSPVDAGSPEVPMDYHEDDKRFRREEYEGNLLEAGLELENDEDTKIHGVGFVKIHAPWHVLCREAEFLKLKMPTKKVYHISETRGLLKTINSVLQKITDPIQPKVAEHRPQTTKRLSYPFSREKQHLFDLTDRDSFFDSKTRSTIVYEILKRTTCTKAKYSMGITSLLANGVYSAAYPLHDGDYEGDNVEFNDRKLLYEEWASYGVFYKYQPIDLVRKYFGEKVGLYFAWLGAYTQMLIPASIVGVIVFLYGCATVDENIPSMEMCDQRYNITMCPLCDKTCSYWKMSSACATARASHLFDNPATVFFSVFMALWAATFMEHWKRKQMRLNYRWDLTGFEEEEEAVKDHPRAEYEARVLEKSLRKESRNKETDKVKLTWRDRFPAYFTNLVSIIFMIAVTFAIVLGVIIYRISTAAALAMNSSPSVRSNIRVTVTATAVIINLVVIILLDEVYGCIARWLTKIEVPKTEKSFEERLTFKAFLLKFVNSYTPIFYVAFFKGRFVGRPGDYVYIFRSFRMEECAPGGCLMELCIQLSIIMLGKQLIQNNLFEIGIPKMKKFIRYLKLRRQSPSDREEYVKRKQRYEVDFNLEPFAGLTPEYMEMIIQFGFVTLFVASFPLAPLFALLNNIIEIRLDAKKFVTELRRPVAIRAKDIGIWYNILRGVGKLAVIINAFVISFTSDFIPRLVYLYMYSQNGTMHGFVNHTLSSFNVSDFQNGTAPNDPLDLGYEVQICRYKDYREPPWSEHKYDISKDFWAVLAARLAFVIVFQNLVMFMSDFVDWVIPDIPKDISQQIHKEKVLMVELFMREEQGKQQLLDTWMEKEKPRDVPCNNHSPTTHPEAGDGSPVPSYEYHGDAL

Some of the results follow. Most values lie at the level of the controls, where differences are scatter.

Compound in the assay: CN[C@@H]1C[C@H]2O[C@@](C)([C@@H]1OC)n1c3ccccc3c3c4c(c5c6ccccc6n2c5c31)C(=O)NC4 [staurosporine]
Description: log2 fold change of tryptic peptide abundance, ligand vs vehicle (limited proteolysis) (log2 ratio); higher = more trypsin-susceptible (destabilized). The settings on record: ligand concentration: 20 uM; sample: mouse liver crude lysate; replicate design: treated separately.
On to “UniProt Q8BS40 (peptide sequence: LVDMDHR, peptide start residue: 91)”, for which the log2 fold change came out at 0.0286.

Turning to “UniProt Q8BIW1 (peptide sequence: QLAIFCPHEALR, peptide start residue: 298)”, the log2 fold change was -0.15.

Regarding “UniProt Q8BJH1 (peptide sequence: FNENAADR, peptide start residue: 129)”, the log2 fold change is 0.317.

Regarding “UniProt Q8BU04 (peptide sequence: FADEGTVVK, peptide start residue: 390)”, the log2 fold change is 0.148.

In the case of “UniProt Q8BSE0 (peptide sequence: YCYTVSR, peptide start residue: 312)”, the log2 fold change was found to be 0.144.

Turning to “UniProt Q8BLK9 (peptide sequence: AAPQLHTGPQPPGSLSSRPPWSLR, peptide start residue: 307)”, the log2 fold change is -0.261.

As to “UniProt Q8BR90 (peptide sequence: EQEWNTANAK, peptide start residue: 274)”, the log2 fold change stood at 0.168.

As to “UniProt Q8BNU0 (peptide sequence: HVCLKHEQNRQDLVK, peptide start residue: 179)”, the log2 fold change was 1.01.

For “UniProt Q8BMA3 (peptide sequence: LRENPTGVVLLLK, peptide start residue: 278)”, the log2 fold change turned out to be 0.34.

Consider “UniProt Q8BVA4 (peptide sequence: NSLSPATQR, peptide start residue: 547)”, for which the log2 fold change is 0.237.

On to “UniProt Q8BS95 (peptide sequence: GDVQNKPSGLWGMLK, peptide start residue: 218)”, for which the log2 fold change is -0.0828.

As for “UniProt Q8BKI2 (peptide sequence: GASVPKPTGSK, peptide start residue: 496)”, the log2 fold change is -0.306.

With “UniProt Q8BLY2 (peptide sequence: WLCAEVQR, peptide start residue: 24)”, the log2 fold change was -0.372.

In the case of “UniProt Q8BM85 (peptide sequence: CHQYDELLSSPEGHAK, peptide start residue: 512)”, the log2 fold change is -0.48.

Turning to “UniProt Q8BSN5 (peptide sequence: LKDSLFDLDGPK, peptide start residue: 133)”, the log2 fold change came to 0.145.

“UniProt Q8BRG6 (peptide sequence: FADTHSLK, peptide start residue: 174)”: the log2 fold change worked out at 0.245.

Regarding “UniProt Q8BTS4 (peptide sequence: MQNHFGAVK, peptide start residue: 443)”, the log2 fold change is -0.199.

“UniProt Q8BMW7 (peptide sequence: TNDQSSHKL, peptide start residue: 408)”: the log2 fold change is -0.337.

“UniProt Q8BTY2 (peptide sequence: FEKEELESHR, peptide start residue: 37)”: the log2 fold change is -0.193.

With “UniProt Q8BIL5 (peptide sequence: SLQETNMMYMHNTVSLEEELKK, peptide start residue: 342)”, the log2 fold change worked out at 0.538.

For the target “UniProt Q8BRK9 (peptide sequence: GLGQGLK, peptide start residue: 971)”, the log2 fold change came to 0.22.

“UniProt Q8BTY8 (peptide sequence: SVYVPGNNTHQASYKPLLK, peptide start residue: 559)”: the log2 fold change stood at 0.264.

For the target “UniProt Q8BTQ0 (peptide sequence: QREFYHK, peptide start residue: 93)”, the log2 fold change was -0.52.

On to “UniProt Q8BJM3 (peptide sequence: DMDCWEVQTAGATGHWR, peptide start residue: 145)”, for which the log2 fold change was found to be 0.577.

Consider “UniProt Q8BMD5 (peptide sequence: FGELEGVRK, peptide start residue: 461)”, for which the log2 fold change stood at 0.786.

As to “UniProt Q8BQS5 (peptide sequence: LGCTRTPEPDIR, peptide start residue: 9)”, the log2 fold change is -0.194.

With “UniProt Q8BUI3 (peptide sequence: APLTPQLLLQR, peptide start residue: 2)”, the log2 fold change is -0.0521.

Consider “UniProt Q8BHY3 (peptide sequence: VYHISETR, peptide start residue: 181)”, for which the log2 fold change amounted to 0.419.

For “UniProt Q8BQN6 (peptide sequence: TSLIVHVR, peptide start residue: 197)”, the log2 fold change was found to be 0.227.

Take “UniProt Q8BHZ4 (peptide sequence: KEPKPEPLPLESQQEHEQGGQK, peptide start residue: 201)”: the log2 fold change was -0.225.

“UniProt Q8BMA5 (peptide sequence: KVSPTEVALESLHK, peptide start residue: 1144)”: the log2 fold change was -0.32.
